Measurements as given in PubChem BioAssay AID2551 (National Center for Advancing Translational Sciences (NCATS), 2010).
In all, about 310,000 compounds went through this assay and about 17,000 (5.5%) were called active. The inconclusive results got no clear call from the source; some entries with a clear call stand among them for comparison. Calls follow the shape of the dose curve; as a rule, active = well fitted inhibition curve with a large enough effect; inconclusive = small, poorly fitted or top-dose-only effect, or effect the other way; inactive = no such curve, though single readings can be large or run the other way. A potency beside an inconclusive call is a rough fit, not a confirmed value.

Amino acid sequences for entries named in this document (tags omitted). A change or cut given only in a name is not applied to a line headed by its entry.
UniProt P51450: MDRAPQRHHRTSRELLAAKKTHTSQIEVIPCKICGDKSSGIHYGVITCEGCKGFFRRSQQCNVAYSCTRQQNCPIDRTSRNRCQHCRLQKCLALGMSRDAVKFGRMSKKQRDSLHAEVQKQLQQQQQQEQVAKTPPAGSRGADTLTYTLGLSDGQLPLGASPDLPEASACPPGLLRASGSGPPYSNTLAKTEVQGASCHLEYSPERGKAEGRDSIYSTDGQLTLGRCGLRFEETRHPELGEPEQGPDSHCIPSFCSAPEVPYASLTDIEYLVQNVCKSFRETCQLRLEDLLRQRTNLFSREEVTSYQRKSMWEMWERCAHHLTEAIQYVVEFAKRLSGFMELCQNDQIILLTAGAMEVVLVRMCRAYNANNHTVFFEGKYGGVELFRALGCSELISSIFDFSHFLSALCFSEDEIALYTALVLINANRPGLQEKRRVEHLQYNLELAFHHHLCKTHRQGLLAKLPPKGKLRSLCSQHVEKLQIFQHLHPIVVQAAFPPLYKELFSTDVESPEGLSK

target: Nuclear receptor ROR-gamma (Mus musculus) (UniProt P51450); assay: qHTS for inhibitors of ROR gamma transcriptional activity; conditions: Drosophila S2 Gal4-RORgamma UAS-luciferase reporter, 20 h; activity change, negative = inhibition: at 53.6 µM (top of the series); also: nearly all actives have a fitted effect of over 60% in size
In short: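 Luciferase reporter read in Schneider cells carrying Gal4-RORγ (mouse) and UAS-Photinus luciferase; cells given compound 1 h before 700 uM copper sulfate induction, then incubated 20 h at ambient temperature.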
% is scaled to controls: 0 for no effect and ±100 for the full control effect; potency is read from the fitted curve at half-maximal effect.

Compound	Potency	activity change, negative = inhibition
O=C(Nc1ccc([N+](=O)[O-])cc1)c1cc(Cl)sc1Cl	inconclusive: 7.94 µM [activator, partial curve, poor fit]	–
FC(F)(F)c1cccc(NC(=S)Nc2ccc(Cl)cc2Cl)c1	inconclusive: 35.5 µM [inhibitor, single point]	–
CN1CCC(=NNC(=O)c2ccc(N(Cc3ccc(Cl)cc3)S(C)(=O)=O)cc2)CC1	inconclusive: 22.4 µM [inhibitor, single point]	–
NNC(=S)NC1CCS(=O)(=O)C1 (centres undefined)	active: 2.82 µM	–
CC(CCCC(C)(C)O)NC(=O)c1cc(COc2ccc3ncccc3c2)on1 (centres undefined)	active: 7.94 µM	–
Cc1ccc(C(=O)c2coc3cc([N+](=O)[O-])c(O)c([N+](=O)[O-])c23)cc1	inconclusive: 35.5 µM [activator, single point]	–
COc1ccc(C(=O)CSc2nnc(C3CCCCC3)n2N)c(OC)c1	inconclusive: 35.5 µM [inhibitor, single point]	–
S=c1nc[nH]c2c1cnn2-c1ccccc1	active: 3.55 µM	–
COC(=O)c1oc(-c2ccc(Cl)cc2)nc1C	–	inactive: 19.2%
COc1ccc(CNc2nc(S(=O)(=O)c3ccccc3)c(Cl)s2)cc1OC	inconclusive: 22.4 µM [activator, single point]	–
O=C1c2cccc3c(N4CCCCC4)ccc(c23)C(=O)N1c1cccc(O)c1	inconclusive: 12.6 µM [activator, partial curve]	–
CCCC[C@H](CC)CN=C(N)NC(N)=NCCCCCCN=C(N)NC(N)=NC[C@@H](CC)CCCC	inconclusive: 12.6 µM [activator, single point]	–
O[C@H](CN1CCN(c2cccc(Cl)c2)CC1)C(c1ccccc1)c1ccccc1	inconclusive: 35.5 µM [activator, partial curve, poor fit]	–
CC(C)CCNC(=O)c1ccc(C2SCC(=O)N2Cc2ccco2)cc1 (centres undefined)	inconclusive: 35.5 µM [activator, single point]	–
CCN(CC)S(=O)(=O)c1cccc(C(=O)N/N=C(\C)c2ccc(O)cc2O)c1	active: 12.6 µM	–
O=C(/C(C=Nc1ccc(Br)cc1)=C(/O)c1ccco1)C(F)(F)F	inconclusive: 35.5 µM [inhibitor, single point]	–
O=C(Nc1ccccc1N1CCCC1)c1ccc([N+](=O)[O-])o1	active: 2 µM	–
CN1C/C(=C/c2cccnc2)C(=O)/C(=C/c2cccnc2)C1	active: 5.62 µM	–
O=C(N/N=C/c1ccc2c(c1)OCO2)c1ccc2c(c1)OCCO2	–	inactive: -31.3%
CC(=O)C(=Nc1ccc(Cl)cc1Cl)NNc1cccc(Cl)c1	inconclusive: 5.62 µM [inhibitor, single point]	–
N#Cc1cccc(-c2cncnc2NCc2cccnc2)c1	–	inactive: 28.3%
Cc1ccc(NC(=O)c2cnn(-c3ccccc3)c2NC(=O)c2ccco2)cc1C	inconclusive: 14.1 µM [activator, partial curve]	–
CC1=NN(C(N)=S)C(=O)C1N=Nc1ccccc1O (centres undefined)	–	inactive: -40.1%
Cc1cccc(Nc2ncnc3ccc(Br)cc23)c1	inconclusive: 14.1 µM [activator, single point]	–
CCn1nc(NS(=O)(=O)c2cccc3nonc23)c2cc3ccc(C)cc3nc21	–	inactive: -16.3%

Compound	Potency	activity change, negative = inhibition
Cc1ccc(-c2n[nH]c(=S)n2Cc2ccccc2)cc1	active: 2.82 µM	–
CCCOc1cccc(C(=O)Nc2cccnc2)c1	–	inactive: 44.9%
O=C(c1cccc(S(=O)(=O)N2CCCCC2)c1)N1CCOCC1	inconclusive: 3.16 µM [inhibitor, single point]	–
CC(/C=C/c1ccc2c(c1)OCO2)=N/NC(=O)COc1ccc(C)cc1	–	inactive: -7.21%
O=C(Nc1nc(N2C(=O)c3ccccc3C2=O)n(-c2ccccc2)n1)c1ccc(F)cc1	active: 10 µM	–
CCOc1nc(NCc2ccco2)nc(Nc2ccccc2F)n1	inconclusive: 14.1 µM [inhibitor, partial curve, poor fit]	–
CCOc1ccccc1-n1c(CNc2ccc(F)cc2)nnc1SCC(=O)NCc1ccco1	inconclusive: 0.398 µM [activator, full curve, poor fit]	–
COc1ccc(-n2c(-c3ccc(Cl)cc3)c[n+]3c2CCc2ccccc2-3)cc1	inconclusive: 35.5 µM [inhibitor, single point]	–
CCOC(=O)C1=C(C)N=c2s/c(=C/c3ccc(OCC(=O)O)cc3)c(=O)n2C1c1ccc(F)cc1 (centres undefined)	–	inactive: 19.8%
CCC(=O)Nc1cc(C(C)(C)C)ccc1C(C)=O	inconclusive: 22.4 µM [activator, single point]	–
COCCSc1nnc(NS(=O)(=O)c2ccc(F)cc2)s1	–	inactive: 3.49%
COc1ccc(-n2c(=O)c(-c3cccs3)nc3cnc(Nc4ccccc4)nc32)cc1	inconclusive: 20 µM [inhibitor, single point]	–
COc1nc(OC)nc(Oc2ccc(Cl)cc2[N+](=O)[O-])n1	–	inactive: -8.22%
O=C(/C=C/c1ccc(N2CCCCC2)c([N+](=O)[O-])c1)c1ccc(O)cc1	active: 11.2 µM	–
O=C(NC(=S)Nc1cccc2cccnc12)c1ccccc1	active: 2.24 µM	–
CCOc1cc(/C=C(\C#N)C(N)=O)cc(CSc2ccccc2)c1O	inconclusive: 35.5 µM [activator, single point]	–
CS(=O)(=O)N1CCC2(CCCN(c3ccncc3)C2)CC1	–	inactive: 1.16%
N=C1C2=C3Sc4ccccc4N3CCCC2=NN1c1cccc(S(=O)(=O)O)c1	–	inactive: 14.8%
N#Cc1ccc(COC(=O)c2ccccn2)cc1	–	inactive: 0.73%
O=C(CN1CCOCC1)Nc1ccc([N+](=O)[O-])cc1Br	–	inactive: 17.9%
Cn1c(SCC(=O)NCc2ccc3c(c2)OCO3)nnc1-c1c[nH]c2ccccc12	–	inactive: 12.7%
NC(=O)c1ccc(NC(=O)CSC2=Nc3ccccc3C3CC=NN23)cc1 (centres undefined)	inconclusive: 3.98 µM [inhibitor, partial curve]	–
CCNc1nc(Cl)nc(-c2cn(-c3ccccc3)c3ccccc23)n1	inconclusive: 1.41 µM [inhibitor, partial curve]	–
CN(CC(=O)N1CCN(c2ccccn2)CC1)S(=O)(=O)c1ccc(Cl)cc1	inconclusive: 35.5 µM [activator, single point]	–
CCOC(=O)c1c(C)[nH]c(C)c1C(=O)Cn1nnc(-c2ccccc2C)n1	–	inactive: 16.5%

Compound	Potency	activity change, negative = inhibition
CC(C)[C@H](Nc1ccc(S(=O)(=O)N2CCOCC2)cc1[N+](=O)[O-])C(=O)OCC(=O)N(C(C)C)C(C)C	inconclusive: 0.794 µM [activator, partial curve]	–
COc1cccc(NS(=O)(=O)c2ccc(-c3coc(C)n3)cc2)c1	inconclusive: 22.4 µM [activator, single point]	–
CC(C)CN1C(=O)c2ccc(C(=O)Nc3ccc(OCC(=O)O)cc3)cc2C1=O	–	inactive: -8.16%
COc1ccc(-c2ccc(N(C)C)cc2)cc1C1C2C=CCC(C)C2C(=O)N1Cc1ccccc1 (centres undefined)	–	inactive: -0.209%
CCCc1cc(C(=O)Nc2cccc3ccccc23)n(C)n1	–	inactive: 4.23%
Clc1cccc2c1Sc1ccccc1CC2N1CCNCC1 (centres undefined)	inconclusive: 35.5 µM [inhibitor, single point]	–
CCOC(=O)c1c(-c2ccccc2)oc2ccc(OCC(O)CN(C)C)cc12 (centres undefined)	inconclusive: 22.4 µM [inhibitor, single point]	–
CC(=O)O[C@@H]1C(CO[Si](C)(C)C(C)(C)C)=C(Br)C(=O)[C@@H]2O[C@]12C	inconclusive: 35.5 µM [inhibitor, single point]	–
CC(=O)N1c2ccc(S(=O)(=O)N3CCCC(C(=O)Nc4cccc(F)c4)C3)cc2CC1C (centres undefined)	inconclusive: 20 µM [activator, single point]	–
CC(C)(C)n1nnnc1C(c1ccncc1)N(Cc1ccccc1)Cc1ccco1 (centres undefined)	inconclusive: 7.08 µM [inhibitor, full curve, poor fit]	–
Cc1cc(C)nc(NC2=NCCN2C(=S)Nc2ccc(C)c(C)c2)n1	inconclusive: 11.2 µM [inhibitor, partial curve, poor fit]	–
CC(=O)c1ccc(Nc2nc(C)nc3c2oc2ccccc23)cc1	inconclusive: 6.31 µM [inhibitor, single point]	–
O=C(COc1ccc(F)cc1)c1c(O)cc(O)cc1O	active: 2 µM	–
S=c1[nH]nc(-c2ccc(Br)cc2)n1-c1ccc(Br)cc1	active: 11.2 µM	–
COc1ccc(C(=O)N/N=C/c2ccc(OC)c(COc3ccc(F)cc3F)c2)cc1	active: 12.6 µM	–
CC(=C/c1ccco1)/C=N/NC(=O)CSc1nnc(SCc2ccc(C)cc2)s1	inconclusive: 8.91 µM [inhibitor, partial curve]	–
COc1cc(C(=O)NCCOC(=O)c2cccc(N(C)C)c2)cc(OC)c1OC	–	inactive: 0.0134%
C=CCOC(=O)C1=C(C)OC(N)=C(C#N)C1c1ccc(OC)c(CSc2ccccn2)c1 (centres undefined)	inconclusive: 7.94 µM [activator, partial curve]	–
CCCCn1ccnc1C(=O)c1cccc(S(=O)(=O)N2CC(C)CC(C)C2)c1 (centres undefined)	inconclusive: 8.91 µM [inhibitor, partial curve]	–
COc1cc2c(cc1OC)CN(C(=S)Nc1ccc(C)cc1C)CC2	active: 10 µM	–
CC/C(=N\NC(=S)Nc1ccc(OC)cc1)c1ccc(OC(F)F)cc1	active: 12.6 µM	–
Clc1nccnc1N/N=C/c1ccc(Br)cc1	active: 4.47 µM	–
CCOc1ccccc1C(=O)N1CCN(c2cccc(Cl)c2)CC1	–	inactive: -38.8%
COc1ccc(-c2nc3c4ccccc4ccn3c2CN2CCCCC2)cc1OC	inconclusive: 1 µM [inhibitor, partial curve]	–

Structures shown so far with a COOH group, in the order listed:
Compound	Potency	activity change, negative = inhibition
CCOC(=O)C1=C(C)N=c2s/c(=C/c3ccc(OCC(=O)O)cc3)c(=O)n2C1c1ccc(F)cc1 (centres undefined)	–	inactive: 19.8%
CC(C)CN1C(=O)c2ccc(C(=O)Nc3ccc(OCC(=O)O)cc3)cc2C1=O	–	inactive: -8.16%
